Measurements: patent US20090233850A1
No constants are given. Whether binding was seen depends on the method and setting. Some results given as binding are weak or reduced against the parent protein; the word gives no strength. Where a sequence is shown, tags or fusion partners need not be part of it.

Assays:
[1] = biological target: recombinant monomeric HIV-1 YU2 gp120, produced in Drosophila S2 cells (HIV-1 YU2) (UniProt P35961); experiment: SPR (Biacore 3000), YU2 gp120 amine-coupled to a CM5 chip, L5 as analyte, referenced to a 2B6R antibody surface
[2] = biological target: recombinant monomeric HIV-1 YU2 gp120, produced in Drosophila S2 cells (HIV-1 YU2) (UniProt P35961); experiment: competition ELISA on plate-adsorbed YU2 gp120; competitor mAb F105 at a 1:20,000 dilution; percent of control without L5
[3] = biological target: recombinant monomeric HIV-1 YU2 gp120, produced in Drosophila S2 cells (HIV-1 YU2) (UniProt P35961); experiment: sCD4 and 17b competition ELISAs on adsorbed YU2 gp120
[4] = biological target: recombinant monomeric HIV-1 YU2 gp120, produced in Drosophila S2 cells (HIV-1 YU2) (UniProt P35961); experiment: competition ELISA on plate-adsorbed YU2 gp120; competitor mAb 2G12 at 50 ug/ml; percent of control without L5
[5] = biological target: recombinant monomeric HIV-1 YU2 gp120, produced in Drosophila S2 cells (HIV-1 YU2) (UniProt P35961); experiment: ELISA and SPR on gp120
[6] = biological target: recombinant monomeric HIV-1 YU2 gp120, produced in Drosophila S2 cells (HIV-1 YU2) (UniProt P35961); experiment: competition ELISA on plate-adsorbed YU2 gp120; blocked ligand sCD4 at 0.5 ug/ml, detected with anti-CD4; percent of uninhibited control
[7] = biological target: recombinant monomeric HIV-1 YU2 gp120, produced in Drosophila S2 cells (HIV-1 YU2) (UniProt P35961); experiment: ELISA, adsorbed YU2 gp120, polyclonal anti-CVN detection
[8] = biological target: recombinant monomeric HIV-1 YU2 gp120, produced in Drosophila S2 cells (HIV-1 YU2) (UniProt P35961); experiment: ELISA, 100 ng YU2 gp120 adsorbed on the plate, serial dilutions of L5, detection with polyclonal anti-CVN, BSA background subtracted
[9] = biological target: recombinant monomeric HIV-1 YU2 gp120, produced in Drosophila S2 cells (HIV-1 YU2) (UniProt P35961); experiment: competition ELISA on plate-adsorbed YU2 gp120; blocked ligand mAb 17b at 2 ug/ml; percent of uninhibited control

Measured: binding

B1: L5 chimera (CVN-12p1): CVN, linker of five Gly4Ser repeats, 12p1, C-terminal hexa-histidine tag (protein)
chain: LGKFSQTCYNSAIQGSVLTSTCERTNGGYNTSSIDLNSVIENVDGSLKWQPSNFIETCRNTQLAGSSELAAECKTRAQQFVSTKINLDDHIANIDGTLKYEGSGGGGSGGGGSGGGGSGGGGSGGGGSRINNIPWSEAMMHHHHHH
binds: all assays above
